Reference: patent US5196424A, “N-[2-amino-4-substituted[[(pyrrollo or pyrido)[2,3-d]pyrimidinyl]-alkyl]benzoyl]-L-glutamic acids” (priority 1992, dated 1993)
At least one compound was matched to its structure with a doubt left.

Test system: 6C3HED lymphosarcoma
Experiment: In vivo test against transplanted 6C3HED (Gardner) lymphosarcoma in C3H mice (Table II)
Conditions: Dailyx8
Experimental: The compounds were tested in C3H mice bearing a 6C3HED lymphosarcoma, also known as the Gardner lymphosarcoma (GLS). The 6C3HED lymphosarcoma was obtained from the Division of Cancer Treatment, National Cancer Institute, Tumor Bank, maintained at E. G. and G. Mason Research (Worcester, Massachusetts). First passage tumor was stored in liquid nitrogen using standard techniques. The transplanted tumor was reestablished from the Tumor Bank every six months or as needed. The tumor was maintained by serial passage twice weekly in C3H mice.
In the procedure, the tumor was removed from passage animals and minced into 1- to 3-mm square fragments using sterile techniques. Tumor pieces were checked for sterility using both Antibiotic Medium 1 and Brain Heart Infusion (Difco, Detroit, Mich.). Recipient mice were shaved and tumor pieces were implanted subcutaneiously in the auxiliary region by trocar. Drug therapy on the appropriate schedule was initiated on the day after tumor implant. […] The tumor was measured the day after treatment ended with two dimensional measurements (width and length) of the tumor taken using digital electronic calipers interfaced to a microcomputer, J. F. Worzalla, et al., Investigational New Drugs, 8, 241-251 (1990). Tumor weights were calculated from these measurements using the following formula: […]

Nc1ncc2c(n1)NCC2CCc1ccc(C(=O)N[C@@H](CCC(=O)O)C(=O)O)cc1 (stereo partly drawn) [Example 4, N-[2-amino-[di-hydropyrrolo[2,3-d]pyrimidin-5-yl]-ethyl]benzoyl-L-glutamicacid]
% INH (percent inhibition of tumor) (25 mg/kg): TOX
% INH (percent inhibition of tumor) (50 mg/kg): TOX
